# Laboratory results published in PubChem BioAssay AID540276 (National Center for Advancing Translational Sciences (NCATS), 2011).
# Out of some 300,000 compounds screened, about 5,400 (1.8%) were called active. Inconclusive results, whose numbers are uncertain, are shown with a selection of clear calls. The call rests on the fitted dose curve; tested in HEK293 cells. Potencies of inconclusive entries are doubtful fits and often do not repeat.
# Test: qHTS for inhibitors of binding or entry into cells for Marburg Virus
# Details: Marburg virus pseudotyped entry inhibition, cell reporter; series mostly up to 37.8 µM
# Potency means the concentration at half of the fitted maximal effect.
row,SMILES,Potency
1,O=C1NN(c2ccccc2)C(=O)C2C1C1C=CC2C12CC2 (stereo not given),"inconclusive: 1.26 µM [activator, single point]"
2,CCC(C)N1C(=O)S/C(=C/c2ccc(N3CCOCC3)cc2C)C1=O (stereo not given),inactive
3,Cc1ccc(OCC(=O)NS(=O)(=O)c2ccc(Cl)cc2)cc1,"inconclusive: 8.91 µM [activator, partial curve]"
4,COc1ccc(-c2cc(OC)c3ccccc3n2)cc1,inactive
5,Cc1nc2cc(F)ccc2n1C1CCN(C(=O)c2ccc(F)cc2F)CC1,"inconclusive: 10 µM [inhibitor, partial curve]"
6,Cc1ccc(C(=O)NC(=S)Nc2ccc(NC(=O)c3cccc(Cl)c3)cc2)cc1,active: 1.26 µM
7,Cc1cc(C(=O)N[C@H](c2ccccc2)[C@@]2(C)C[C@@H]2[C@@H](C)C(=O)Nc2ccc3ccccc3c2)n(C)n1,"inconclusive: 29.1 µM [inhibitor, single point]"
8,CC(=O)OC[C@H]1O[C@@H](ON=C2C[C@@H](O)[C@@H](O)[C@@H]3[C@H]4C(=O)N(C5CCCCC5)C(=O)[C@@H]4CC[C@@H]23)[C@H](OC(C)=O)[C@@H](OC(C)=O)[C@H]1OC(C)=O,inactive
9,CCCc1cc2c(=O)c(-c3ccc4c(c3)OCCO4)coc2cc1OC(=O)c1ccco1,"inconclusive: 1.26 µM [activator, single point]"
10,CC(=O)Nc1c(Cl)cc2c(c1Cl)C(=O)c1ccccc1-2,inactive
11,COCCNC(=O)c1nn(-c2ccc(Cl)cc2)nc1CO,inactive
12,O=C1CCC([N+](=O)[O-])C(c2ccc(C(F)(F)F)cc2)N1 (stereo not given),inactive
13,COc1ccc(S(=O)(=O)N2CCN(Cc3ccc4c(c3)OCO4)CC2)cc1OC,inactive
14,COCOc1ccc(Br)cc1C(=O)[C@H]1O[C@H]1c1cccc(OC)c1,inactive
15,CCOc1ccc(-c2c(C(=O)N/N=C/c3ccccc3)nnn2-c2nonc2N)cc1,"inconclusive: 28.2 µM [inhibitor, single point]"
16,COc1ccc(C2C(C#N)=C(C)NC(C)=C2C(=O)OC(C)C)c(OC)c1 (stereo not given),"inconclusive: 11.2 µM [inhibitor, partial curve, poor fit]"
17,CC(C)(C)c1cc(OS(C)(=O)=O)ccc1O,"inconclusive: 20 µM [activator, single point]"
18,CN(C)[C@H]1CCN([C@H]2C[S+](=O)([O-])N[C@H]2COCc2ccccc2)C1,"inconclusive: 0.0016 µM [activator, full curve, poor fit]"
19,Cc1ccccc1C(=O)Nc1cccc(NC(=S)NC(=O)c2cccs2)c1,inactive
20,O=C(O)C1CCCCC1C(=O)N1CC=C(c2ccccc2)CC1 (stereo not given),inactive
21,CCCN(CCC)S(=O)(=O)c1ccc(Cl)c([N+](=O)[O-])c1,"inconclusive: 1.78 µM [inhibitor, full curve, poor fit]"
22,O=S(=O)(Nc1nc2ccccc2nc1NCc1ccco1)c1ccc(Cl)cc1,"inconclusive: 11.2 µM [inhibitor, partial curve]"
23,Cc1cccc(Sc2nc(-c3ccccc3)ncc2C(=O)O)c1,"inconclusive: 31.6 µM [activator, single point]"

row,SMILES,Potency
1,Cc1nn(-c2ccccc2)c(C)c1/C=N/Nc1nc2ccccc2[nH]1,active: 12.6 µM
2,Cc1ccc(C(=O)N2CCN(c3ccc([N+](=O)[O-])c(N4CCOCC4)c3)CC2)cc1,"inconclusive: 0.224 µM [inhibitor, full curve, poor fit]"
3,COc1ccccc1N1CCN(CC(O)COc2ccc(C)c(C)c2)CC1 (stereo not given),"inconclusive: 14.1 µM [inhibitor, single point]"
4,Cc1nc(SCCC(=O)O)c2cc(-c3ccccc3)sc2n1,active: 3.98 µM
5,Cc1ccc(Nc2cc(C)c(C#N)c3nc4ccccc4n23)cc1Cl,inactive
6,O=C(CN1CCN(c2ncccn2)CC1)Nc1ccccc1-n1cccc1,"inconclusive: 29.1 µM [inhibitor, single point]"
7,NC(=O)c1ccc(N2CCCCC2)c(N2C(=O)C3CC=CCC3C2=O)c1 (stereo not given),"inconclusive: 0.164 µM [inhibitor, full curve, poor fit]"
8,Oc1ccc2c(c1-c1c(O)c(Br)cc3c1CCCC3)CCCC2,inactive
9,O=S(=O)(NC1CCN(Cc2ccccc2)CC1)c1cccc2cccnc12,"inconclusive: 25.9 µM [inhibitor, single point]"
10,O=C(CSc1nc(-c2ccccc2)[nH]c1-c1ccccc1)Nc1ccc2c(c1)OCCO2,"inconclusive: 12.6 µM [inhibitor, single point]"
11,CCC12C=C(C=Cc3ccccc3)C(CC)(C1)C(c1ccccc1)CC2=O (stereo not given),inactive
12,COc1ccc(CCNC(=O)c2ccc3c(c2)NC(=O)C(C(C)C)N3)cc1OC (stereo not given),"inconclusive: 2.82 µM [inhibitor, full curve, poor fit]"
13,COc1cccc(/C=N/NC(=O)c2[nH]c(C)c(C(=O)N/N=C/c3cccc(OC)c3O)c2C)c1O,active: 8.91 µM
14,Cc1c(-c2ccnc3cc(C(=O)O)nn23)cnn1C,inactive
15,CCOC(=O)C1=C(c2ccccc2)N=c2s/c(=C\c3cccc(O)c3)c(=O)n2C1c1cccs1 (stereo not given),"inconclusive: 25.9 µM [inhibitor, partial curve, poor fit]"
16,Cc1c(C(=O)NCCC2=CCCCC2)oc2ccc(S(=O)(=O)N3CCC4(CC3)OCCO4)cc12,"inconclusive: 11.2 µM [inhibitor, partial curve, poor fit]"
17,N#Cc1ccccc1OCC(=O)NC(=O)NCc1ccccc1,inactive
18,CCC(=O)OC1(c2cccc(C)c2)CC(C)N(C)CC1C (stereo not given),"inconclusive: 35.5 µM [inhibitor, partial curve, poor fit]"
19,CC(C)c1ccccc1NC(=O)CN1C(=O)c2cccc3cccc1c23,"inconclusive: 5.62 µM [activator, single point]"
20,COc1ccc(C(O)C(CN2CCOCC2)c2ccccc2)cc1F (stereo not given),inactive
21,COc1ccc(/C=C2\SC(=O)N(CC(=O)NCCC(C)C)C2=O)cc1OC,inactive
22,COc1ccc(C2CC(c3cccc(OC)c3OC)n3nnnc3N2)cc1 (stereo not given),inactive

# Two entries from above, tab-delimited:
row	SMILES	Potency
16	Cc1c(C(=O)NCCC2=CCCCC2)oc2ccc(S(=O)(=O)N3CCC4(CC3)OCCO4)cc12	inconclusive: 11.2 µM [inhibitor, partial curve, poor fit]
17	N#Cc1ccccc1OCC(=O)NC(=O)NCc1ccccc1	inactive
